1 molecule from doi:10.1101/2020.03.12.988840 can be followed below.

Chains of the proteins cited; added tags and fusions are not shown. Lines headed by an entry give the natural chain unless they say otherwise; changes in a name come on top.
UniProt Q20305: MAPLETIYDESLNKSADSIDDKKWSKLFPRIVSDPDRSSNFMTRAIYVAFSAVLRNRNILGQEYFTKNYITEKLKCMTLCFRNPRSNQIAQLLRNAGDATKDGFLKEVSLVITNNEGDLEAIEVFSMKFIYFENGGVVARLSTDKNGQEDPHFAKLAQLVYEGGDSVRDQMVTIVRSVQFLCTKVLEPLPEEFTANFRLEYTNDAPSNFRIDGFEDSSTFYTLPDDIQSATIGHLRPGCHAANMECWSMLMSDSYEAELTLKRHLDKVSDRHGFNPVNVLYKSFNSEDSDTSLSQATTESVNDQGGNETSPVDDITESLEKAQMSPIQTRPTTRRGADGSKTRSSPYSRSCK
UniProt O01820: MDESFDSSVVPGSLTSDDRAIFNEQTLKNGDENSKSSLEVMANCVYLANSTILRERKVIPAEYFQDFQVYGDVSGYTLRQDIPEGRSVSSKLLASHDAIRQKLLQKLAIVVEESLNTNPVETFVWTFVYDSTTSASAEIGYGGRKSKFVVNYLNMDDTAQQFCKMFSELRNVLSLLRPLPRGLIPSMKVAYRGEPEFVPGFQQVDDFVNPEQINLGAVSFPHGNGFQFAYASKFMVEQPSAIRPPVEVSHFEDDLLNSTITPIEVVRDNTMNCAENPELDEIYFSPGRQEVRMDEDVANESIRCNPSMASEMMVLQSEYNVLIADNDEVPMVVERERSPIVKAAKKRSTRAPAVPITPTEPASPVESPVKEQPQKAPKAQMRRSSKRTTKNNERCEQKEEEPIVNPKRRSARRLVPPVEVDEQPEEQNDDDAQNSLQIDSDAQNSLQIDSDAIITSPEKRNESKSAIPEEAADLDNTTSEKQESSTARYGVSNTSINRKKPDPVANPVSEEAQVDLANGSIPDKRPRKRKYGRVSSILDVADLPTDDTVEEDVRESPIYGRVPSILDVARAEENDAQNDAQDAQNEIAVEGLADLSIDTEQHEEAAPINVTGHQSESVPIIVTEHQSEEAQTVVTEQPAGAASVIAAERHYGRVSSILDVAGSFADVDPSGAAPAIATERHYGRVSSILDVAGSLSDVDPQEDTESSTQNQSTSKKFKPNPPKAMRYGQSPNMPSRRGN

For experiment [1], the target named is HTP-1::GFP (C. elegans) (UniProt Q20305). Kind of experiment: co-IP.
In experiment [2] the target is HTP-3::GFP (C. elegans) (UniProt O01820). Kind of experiment: co-IP.

Results are given in words; binding and its absence hold for the method and conditions named. In cells and extracts the contact can be indirect. A result given as binding can be weak or reduced; the word gives no strength.

B1: PARG-1 (poly(ADP-ribose) glycohydrolase), endogenous (enzyme, UniProt Q867X0 1-781)
chain: MSKKFIELGDPVTQDEKDYEDYVGVGFAHQVPTMKRRKLTEHGNTTESKEDPEEPKSRDVFVSSQSSDESQEDSAENPEIAKEVSENCENLTETLKISNIESLDNVTERSEHTLDNHKSTEPMEEDVNNKSNIDVAINSDEDDELVLEENNKEMRDGEQVQQDLFADDQELIEYPGIMKDTTTQLDITDSEVETAQKMEMIEETEADSTFVGEDSKNQRQSGTTSDEVDADSQINLATKTVRTSSSSFLSTVSTCEAPAKGRARMYQKELEKHVIAFTEGNLTLQPDLNKVDPDRNYRYCTIPNFPASQGKLREDNRYGPKIVLPQRWREFDSRGRRRDSYFYFKRKLDGYLKCYKTTGYFMFVGLLHNMWEFDPDITYKLPALEMYYKEMSELVGREEVLEKFARVARIAKTAEDILPERIYRLVGDVESATLSHKQCAALVARMFFARPDSPFSFCRILSSDKSICVEKLKFLFTYFDKMSMDPPDGAVSFRLTKMDKDTFNEEWKDKKLRSLPEVEFFDEMLIEDTALCTQVDFANEHLGGGVLNHGSVQEEIRFLMCPEMMVGMLLCEKMKQLEAISIVGAYVFSSYTGYGHTLKWAELQPNHSRQNTNEFRDRFGRLRVETIAIDAILFKGSKLDCQTEQLNKANIIREMKKASIGFMSQGPKFTNIPIVTGWWGCGAFNGDKPLKFIIQVIAAGVADRPLHFCSFGEPELAAKCKKIIERMKQKDVTLGMLFSMINNTGLPHKHFEFYVFDRISTYLSSSEDVESSKSSPSVSRA
In the case of B1, the binding result in experiment [1] and in experiment [2] was “binds” each time.
